Data: patent US20180243435A1 (AbbVie / Abbott, published 2018)
No constants are given. Whether binding was seen depends on the method and setting. Some entries that bind do so weakly or less than the wild type.

Amino acid sequences for entries named in this document (tags omitted). A change or cut given only in a name is not applied to a line headed by its entry.
UniProt Q9NYJ7: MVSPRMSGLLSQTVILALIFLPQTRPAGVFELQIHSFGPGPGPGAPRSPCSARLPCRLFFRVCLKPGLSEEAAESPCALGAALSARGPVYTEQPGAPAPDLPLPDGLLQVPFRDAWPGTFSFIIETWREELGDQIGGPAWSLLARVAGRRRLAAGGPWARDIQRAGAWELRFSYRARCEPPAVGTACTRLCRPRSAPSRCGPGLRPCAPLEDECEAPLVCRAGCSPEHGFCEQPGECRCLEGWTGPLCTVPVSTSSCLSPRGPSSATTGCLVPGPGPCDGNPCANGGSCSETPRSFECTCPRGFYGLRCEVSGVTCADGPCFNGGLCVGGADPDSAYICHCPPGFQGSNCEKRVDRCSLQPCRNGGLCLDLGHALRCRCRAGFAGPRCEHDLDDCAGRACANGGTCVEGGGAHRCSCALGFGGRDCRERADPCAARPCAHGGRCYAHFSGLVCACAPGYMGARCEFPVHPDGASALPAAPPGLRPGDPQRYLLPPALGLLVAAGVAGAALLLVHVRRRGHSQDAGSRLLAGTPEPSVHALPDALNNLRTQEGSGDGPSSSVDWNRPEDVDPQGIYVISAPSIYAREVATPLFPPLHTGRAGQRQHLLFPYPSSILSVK

B1: SC16.121 (antibody, V domains shown)
VH: EVQLVESGGGLVQPKGSLKLSCAASGFTFNTYAMNWVRQAPGKGLEWVARIRIKSNNYATYYADSVKDRFTISRDDSQNMLYLQMNNLKTEDTAVYYCVRQGYSYDWGPWFAYWGQGTLVTVSA
VL: QIVLTQSPAIMSASPGEKVTITCSASSSVSYMHWFQQKPGTSPKLWIYSTSNLASGVPARFSGSGSGTSYSLTISRMEAEDAATYYCQQRSSYPPTFGGGTKLEIK
B2: SC16.123 (antibody, V domains shown)
VH: QVALKESGPGILQPSQTLSLTCSFSGFSLSTSGMGVGWIRQPSGKGLEWLAHIWWDDVKRYNPALKSRLTISKDTSSSQVFLKIASVDTADTATYYCARMEDYGSSSYFDFWGHGTTLTVSS
VL: QIVLTQSPAIMSASLGERVTMTCTASSSVSSSYLHWYQQKPGSSPKLWIYSTSNLASGVPARFSGSGSGTSYSLTISSMETEDAATYYCHQYHRSPFTFGSGTKLEIK
B3: SC16.124 (antibody, V domains shown)
VH: EVQLQQSGPELVKPGASVKMSCKASGYTFTSYVMHWVKQKPGQGLEWIGYINPYNDGTKYNEKFKGKATLTSDKSSSTAYMELSSLTSEDSAVYYCARGALYYGNYLGYFDVWGAGTTVTVSS
VL: DIQMTQSPASQSASLGESVTITCLASQTIGTWLAWYQQKPGKSPQLLISAATSLADGVPSRFSGSGSGTKFSFKISSLQAEDFVSYYCQQLYSTPWTFGGGTKLEIK
B4: SC16.126 (antibody, V domains shown)
VH: QVQMKESGPGLVAPSQSLSITCTVSGSSLTNYGVHWVRQPPGKGLEWLGVIWAGGSTNYNSALMSRLSISKDNSKSQVFLKMNSLQTDDTAMYYCARDWEGWFAYWGQGTLVTVSA
VL: DIQMNQSPSSLSASLGDTITITCHASQNINVWLSWYQQKPGNIPKLLIYKASNLHTGVPSRFSGSGSGTGFTLTISSLQPEDIATYYCQQGQSYPFTFGSGTKLEIK
B5: SC16.129 (antibody, V domains shown)
VH: QVQLKESGPGLVAPSQSLSITCTVSGFSLTDYGVSWIRQPPGKGLEWLGVIWGGGSTYYNSALKSRLSISKDNSKSQVFLELNSLQTDDTAIYYCAKHYGHYAAYWGQGTLVTVSA
VL: DIQMTQSPASQSASLGESVTITCLASQTIGTWLAWYQQKPGKSPQLLIYAATSLADGVPSRFSGSGSGTKFSFKISSLQAEDFVSYYCQQLYSTPYTFGGGTKLEIK
B6: SC16.130 (antibody, V domains shown)
VH: EVQLQQSGPELVKPGASVKMSCKASGYTFTSYVMHWVKQKPGQGLEWIGYINPYNDGTEYNEKFKGKATLTSDKSSSTAYMELSSLTSEDSAVYYCARGVYDGYSYFDYWGQGTTLTVSS
VL: DIQLTQSPASLSASVGETVTITCRASGSIHNYLAWYQQKQGKSPQLLVYNAKTLVDGVPSRFSGSGSGTQYSLKINSLQPEDFGYYYCQHFWTTPWTFGGGTKLEIK
B7: SC16.131 (antibody, V domains shown)
VH: QVQLKESGPGLVAPSQSLSITCTVSGFSLTNYGVHWVRQPPGKGLEWLGVIWAGGITNYNSALMSRLSISEDNSKSQVFLKMNSLQTDDTAMYYCARNLGPYAMDYWGQGTSVTVSS
VL: DIQMNQSPSSLSASLGDTITITCHVSQNINVWLSWYQQKPGNIPKLLIQKASNLHTGVPSRFSGSGSGTGFTLTISSLQPEDIATYYCQQGQSYPFTFGSGTKLEIK
B8: SC16.132 (antibody, V domains shown)
VH: QVQLKESGPGLVAPSQSLSITCTVSGFSLTDYGVSWIRQPPGKGLEWLGVVWGGGSTYYNSALKSRLSITKDNSKSQVFLKMNSLQTDDTAMYYCAKQRGQYGAYWGQGTLVTVSA
VL: DIQMTQSPASQSASLGESVTITCLASQTIGTWLAWYQQKPGKSPQLLIYAATSLADGVPSRFSGSGSGTKFSFKISSLQAEDFVSYYCQQLYSTPWTFGGGTKLEIK
B9: SC16.133 (antibody, V domains shown)
VH: QVQLKESGPGLVAPSQSLSITCTVSGFSLTNYAVHWVRQSPGKGLEWLGVIWSDGSTDYNAAFISRLSISKDNSKSQVFFKMNSLQADDTAMYYCARKKGGWFPWFAYWGQGTLVTVSA
VL: SIVMTQTPKFLLVSAGDRVTITCKASQSVSNDVAWYQQKPGQSPKLLIYCASNRYTGVPDRFTGSGYGTDFTFTISTVQAEDLAVYFCQQDYSSPLTFGAGTKLELK
B10: SC16.135 (antibody, V domains shown)
VH: QVQLQQSGAELVRPGTSVKVSCKASGYAFTNYLIEWVKQRPGQGLEWIGVINPGSGGTNSNEKFKAKATLTADKSSSTAYMQLSSLTSADSAVYFCARSDYDYAFYAMDYWGQGTSVTVSS
VL: DIKMTQSPSSMYASLGERVTITCKASQDINRYLSWFQQKPGKSPKTLIYRANRLVDGVPSRFSGSGSGQDYSLTISSLEYEDMGIYYCLQYDEFPFTFGSGTKLEIK
B11: SC16.136 (antibody, V domains shown)
VH: EVQLQQSGPELVKPGASVKMSCKASGYTFTSYVMHWVKQKPGQGLEWIGYINPYNDGTKYNEKFKGKATLTSDKSSSTAYMELSSLTSEDSAVYYCARDRSGYEDYYGMDYWGQGTSVTVSS
VL: DIQMTQSPASLSASVGETVTITCRASGNIHNYLAWYQQKQGKSPHLLVYNAKTLADGVPSRFSGSGSGTQYSLKINSLQPEDFGSYYCQHFWSTPWTFGGGTKLEIK
B12: SC16.137 (antibody, V domains shown)
VH: EVQLVESGGDLVKPGGSLKLSCAASGFTFSSYGMSWVRQTPDKRLEWVATISSGGSYTYYPDSVKGRFTISRDNAKNTLYLQMSSLKSEDTAMYYCARRRADAMDYWGQGTSVTVSS
VL: QIVLTQSPAIMSASLGEEITLTCSASSSVSYMHWYQQKSGTSPKLLIYSTSNLASGVPSRFSGSGSGTFYSLTISSVEAEDAADYYCHQWSSYHTFGGGTKLEIKR
B13: SC16.138 (antibody, V domains shown)
VH: QVQLKESGPGLVAPSQSLSITCTVSGFSLTDYGVSWIRQPPGKGLEWLGVVWGGGSTYYNSALKSRLSISKDNSKSQVFLKMNSLQTDDTAMYYCAKQRGQYGAYWGQGTLVTVSA
VL: DIQMTQSPASQSASLGESVTITCLASQTIGTWLAWYQQKPGKSPQLLIYSATSLADGVPSRFSGSGSGTKFSFKISSLQAEDFVSYYCQQLYSTPWTFGGGTKLEIK
B14: SC16.139 (antibody, V domains shown)
VH: EVQLQQSGPELVKPGASVKMSCKASGYTFTNYVMHWVKQKPGQGLEWIGYINPYNDGTKYNEKFKGKATLTSDKSSTTAYMALSSLTSEDSAVYYCAVAYYSNWGFAYWGQGTLVTVSA
VL: DIVMTQSHKFMSTSVGDRVSITCKASQDVNTAVGWYQQKPGQSPKLLIYSASYRYTGVPDRFTGSGSGTDFTFTISSVQAEDLAVYYCQQHYSSPYTFGGGTKLEIK
B15: SC16.140 (antibody, V domains shown)
VH: QVQLQQSGPELVRPGASVKMSCKASGYTFTSYWMHWVKQRPGQGLEWIGMIDPSNSETRLNQKFKDKATLNVDKSSNTAYMQLSSLTSEDSAVYYCAVMDYYFDYWGQGTTLTVSS
VL: DIVLTQSLASLAVSLGQRATISCRASKSVSTSGYSYMHWYQQKPGQPPKLLIYLASNLESGVPARFSGSGSGTDFTLNIHPVEDEDAATYYCQHSRELPFTFGGGTKLEIK
B16: SC16.141 (antibody, V domains shown)
VH: QVQLKQSGPGLVAPSQSLFITCTVSGFSLTSYEINWVRQPPGKGLEWLGVIWTGGSTNYNSALISRLSISKDNSKSLVFLKMNSLQTDDTAIYYCVRGVYAMDYWGQGTSVTVSS
VL: DIKMTQSPSSMYASLGERVTITCKASQDINSYLSWFQQKPGKSPKTLIYRANRLVDGVPSRFSGSGSGQDYSLTISSLEYEDMGIYYCLQYDEFPFTFGSGTKLEIK
B17: SC16.143 (antibody, V domains shown)
VH: QVQLQQSGPELVKPGASVRISCKASGYTFTSYYIHWVKQRPGQGLEWIGWIYPGNGNTKYNEKFKGKATLTADKSSSTAYMQISSLTSEDSAVYFCARERWLLLWFAYWGQGTLVTVSA
VL: DVLMTQTPLSLPVSLGDQASISCRSSQSIVHSNGNTYLEWYLQKPGQSPKLLIYKVSNRFSGVPDRFSGSGSGTDFTLKISRVEAEDLGVYYCFQGSHVPLTFGAGTKLELK
B18: SC16.144 (antibody, V domains shown)
VH: QIQLVQSGPELKKPGETVKISCKASGYTFTNYGMNWVKQAPGKGLKWVGWINTYTGEPTYADDFKGRFAFSLETSASTAYLQIDNLKNEDTATYFCARVGDYVGFDYWGQGTTLTVSS
VL: SIVMTQTPKFLLVSAGDRVTITCKASQSVSNDVGWYQQKPGQSPKLLIYYASNRYNGVPDRFTGSGYGTDFTFTISTVQAEDLAVYFCQQDYSSPWTFGGGTKLEIK
B19: SC16.147 (antibody, V domains shown)
VH: QIQLVQSGPELTKPGETVKISCKASGYTFTDYSLHWVKQALGKGLKWMGWINTETGEPAYADDFKGRFAFSLETSASTAYLQINDLKNEDTTTYFCGIYDGYAMDYWGQGTSVTVSS
VL: DIQMTQTASSLSASLGDRVTISCRASQDINNYLNWYQQKPDGTVKLLIYYTSRLHSGVPSRFSGSGSGTDYSLTISILEQEDIATYFCQQGDTLPWTFGGGTKLEIK
B20: SC16.15 (antibody, V domains shown)
VH: QVQLQQSGAELAKPGASVKMSCKASGYTFTRYWIHWIKQRPGQGLEWIGYINPTTVYTEFNQNFKDKATLTADKSSTTASMQLSSLTSEDSAVYYCARGGSNFFDYWGQGTTLTVSS
VL: DIQMTQSPASLAASVGETVAITCRASENIYYNLAWYQQKQGKSPQLLIYTANSLEDGVPSRFSGSGSGTQYSLKINSMQPEDSATYFCKQAYDVPPTFGGGTKLEIK
B21: SC16.148 (antibody, V domains shown)
VH: QIQLVQSGPELKKPGETVKISCKASGYTLTNYGMNWVKQAPGKGLKWMGWINTYTGEPTYADDFKGRFAFSLETSARIVYLQINNLKNEDTATYFCAKYEAHEGFVYWGQGTLVTVSA
VL: QIVLTQSPAIMSASPGEKVTMTCSASSSVSYMYWYQQKPGSSPRLLIYDTSNLASGVPVRFSGSGSGTSYSLTISRMEAEDTATYYCQEWSNNPLTFGDGTKLELK
B22: SC16.149 (antibody, V domains shown)
VH: QVQLKESGPGLVAPSQSLSITCAVSGFSLTSFGVHWVRQPPGKGLEWLGVIWAGGSTNYYSALMSRLSISIDNSKSQVFLKMNSLQTDDTAMYYCARDWEGWFAYWGQGTLVTVSA
VL: DIQMNQSPSSLSASLGDTITITCHASQNINVWLSWYQQKPGNIPKLLIYKASHLHTGVPSRLSGSGSGTGFTLTISSLQPEDIATYYCQQGQSYPFTFGSGTTLEIK

target: human DLL3 (human) (UniProt Q9NYJ7); experiment: hybridoma screening: ELISA on immobilized DLL3 or flow cytometry on HEK-293T cells overexpressing hDLL3

binding, binds:
B1
B2
B3
B4
B5
B6
B7
B8
B9
B10
B11
B12
B13
B14
B15
B16
B17
B18
B19
B20
B21
B22
